The subject of the series is catalepsy in mice. As to the kind of experiment: Catalepsy test (horizontal bar). Conditions: for C/B: ratio catalepsy ED50 / MK-801-induced hyperactivity ED50.

In the case of `O=C(CCCN1CCC(O)(c2ccc(Cl)cc2)CC1)c1ccc(F)cc1` [haloperidol], the C/B is listed as 1.16. The C/A (ratio catalepsy ED50 / apomorphine-induced climbing ED50) is on record as 2.44.
For the compound `Fc1ccc2c(C3CCN(CCCSc4nnc(-c5cccc6ccccc56)o4)CC3)noc2c1` [Compound 22, 2-(3-(4-(6-fluorobenzo[d]isoxazol-3-yl)piperidin-1-yl)propylthio)-5-(naphthalen-1-yl)-1,3,4-oxadiazole], the C/B is listed as 83.80. Moreover, the “therapeutic indices between efficacy (apomorphine or MK-801 models) and side effects (catalepsy)” value (mice, po, range over both efficacy models) is reported as 81–83.

(Values after PMC3340383, “Synthesis and Evaluation of a Series of 2-Substituted-5-Thiopropylpiperazine (Piperidine)-1,3,4-Oxadiazoles Derivatives as Atypical Antipsychotics” (PLoS ONE, 2012).)
